Earlier results on one compound are cited in patent publication US9539176B2, “Process for manufacturing a pharmaceutical dosage form comprising nifedipine and candesartan cilexetil” (BAYER PHARMA AKTIENGESELLSCHAFT, priority 2012, dated 2017).

The conditions of the data set: in vivo; cited from earlier work.

Each structure is given as a SMILES string.

As to `COC(=O)C1=C(C)NC(C)=C(C(=O)OC)C1c1ccccc1[N+](=O)[O-]` [nifedipine], the plasma half-life result is given as “about 2 hours”.
